Negatives hold for the conditions tested.
Columns and labels:
beta-NGF (Homo sapiens) [1] = molecular target: beta-NGF (Homo sapiens) (UniProt P01138); assay: filter binding; conditions: purified recombinant protein, label: radiolabel, single-stranded DNA
beta-NGF (Homo sapiens) [2] = molecular target: beta-NGF (Homo sapiens) (UniProt P01138); assay: activity in cells; conditions: single-stranded DNA
[3] = BndU at Z' (n) positions [n positions 15,22,23,28,29,30,36,37,39 = modified dU], retained binding, variant of 2426-66

Protein sequences, listed by entry. Tags and fused reporters are not part of them. Residues count along the entry.
UniProt P01138, 122-241: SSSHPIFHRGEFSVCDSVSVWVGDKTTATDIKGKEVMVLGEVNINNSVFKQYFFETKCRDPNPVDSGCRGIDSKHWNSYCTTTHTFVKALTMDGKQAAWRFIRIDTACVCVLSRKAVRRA

Question: What does the source list for “AGTGACCGTCTGCCTGCAGCGGGACACATGAGGACTTGGGGTTTAGCCGT [2426-66-3]”?
Answer: binding result (beta-NGF (Homo sapiens) [1]; BndU at Z' (n) positions [n positions 29,36,37,42,43,44,50 = modified dU], did not retain binding, described as poor affinity in p179, variant of 2426-66): no binding; functional effect of the aptamer (beta-NGF (Homo sapiens) [2]; BndU at Z' (n) positions [n positions 29,36,37,42,43,44,50 = modified dU], PC12 neurite growth at 10 nM, little inhibition, 3'-idT, purified recombinant …, variant of 2426-66): not active; functional effect of the aptamer (beta-NGF (Homo sapiens) [2]; BndU at Z' (n) positions [n positions 29,36,37,42,43,44,50 = modified dU], TrkA phosphorylation, little inhibition at 10 nM, purified recombinant protein, variant of 2426-66): not active

Question: Which “functional effect of the aptamer” value (beta-NGF (Homo sapiens) [2]; BndU at Z' (n) positions, 3'-idT in cell assays [n positions 3,10,11,16,17,18,24,25,27 = modified dU], TrkA phosphorylation effectively inhibited at 10 nM, purified recombinant protein, variant of 2426-66) does the source give for “CATGAGGACTTGGGGTTTAGCCGTTGTG [2426-66-50]” here?
Answer: active

Question: Does “CATGAGGACTTGGGGTTTAGCCGTTGTG [2426-66-75]” bind (beta-NGF (Homo sapiens) [1]; BndU at Z' (n) positions, dT at 11 and 18, 3'-idT in cell assays [n positions 3,10,16,17,24,25,27 = modified dU], no loss of affinity vs unsubstituted control, variant of 2426-66-50)?
Answer: binds

Question: And the “functional effect of the aptamer” value (beta-NGF (Homo sapiens) [2]; BndU at Z' (n) positions, dT at 11 and 18, 3'-idT in cell assays [n positions 3,10,16,17,24,25,27 = modified dU], PC12 neurite growth at 10 nM, not effective inhibitor although affinity retained, 3'-idT, purified recombinant protein, variant of 2426-66-50)?
Answer: not active

Question: Which “functional effect of the aptamer” value (beta-NGF (Homo sapiens) [2]; BndU at Z' (n) positions [n positions 30,37,38,43,44,45,51,52,54 = modified dU], TrkA phosphorylation effectively inhibited at 10 nM, purified recombinant protein) does the source give for “GAGTGACCGTCTGCCTGCAGCGGGACACATGAGGACTTGGGGTTTAGCCGTTGTGGCACAGAGAAGAAACAAGACC [2426-66]” here?
Answer: active

Question: Does TGAGGACTTGGGGTTTAGCCGTTGTG [2426-66-74] bind (beta-NGF (Homo sapiens) [1]; BndU at Z' (n) positions, dT at 25 [n positions 1,8,9,14,15,16,22,23 = modified dU], complete loss of affinity, variant of 2426-66-54)?
Answer: no binding

Question: Does TGAGGACTTGGGGTTTAGCCGTTGTG [2426-66-77] bind (beta-NGF (Homo sapiens) [1]; BndU at Z' (n) positions, dT at 9 and 16 [n positions 1,8,14,15,22,23,25 = modified dU], no loss of affinity vs unsubstituted control, variant of 2426-66-54)?
Answer: binds

Question: Does “TGCAGCGGGACACATGAGGACTTGGGGTTTAGCCGTTGTG [2426-66-30]” bind (beta-NGF (Homo sapiens) [1]; [3])?
Answer: binds

Question: Does “TGCAGCGGGACACATGAGGACTTGGGGTTTAGCCGTTGTGGCACAGAGAA [2426-66-17]” bind (beta-NGF (Homo sapiens) [1]; [3])?
Answer: binds

Question: Does “TGCCTGCAGCGGGACACATGAGGACTTGGGGTTTAGCCGTTGTGGCACAG [2426-66-13]” bind (beta-NGF (Homo sapiens) [1]; BndU at Z' (n) positions [n positions 19,26,27,32,33,34,40,41,43 = modified dU], retained binding, variant of 2426-66)?
Answer: binds
